Results are given in words; binding and its absence hold for the method and conditions named. In cells and extracts the contact can be indirect. Some results given as binding are weak or reduced against the parent protein; the word gives no strength. Tags and fused reporters may be left off the sequences shown.
Molecular target: T1, Suppressor of fused homolog (SUFU) (human (endogenous in HEK-293)) (UniProt Q9UMX1)
T1 sequence: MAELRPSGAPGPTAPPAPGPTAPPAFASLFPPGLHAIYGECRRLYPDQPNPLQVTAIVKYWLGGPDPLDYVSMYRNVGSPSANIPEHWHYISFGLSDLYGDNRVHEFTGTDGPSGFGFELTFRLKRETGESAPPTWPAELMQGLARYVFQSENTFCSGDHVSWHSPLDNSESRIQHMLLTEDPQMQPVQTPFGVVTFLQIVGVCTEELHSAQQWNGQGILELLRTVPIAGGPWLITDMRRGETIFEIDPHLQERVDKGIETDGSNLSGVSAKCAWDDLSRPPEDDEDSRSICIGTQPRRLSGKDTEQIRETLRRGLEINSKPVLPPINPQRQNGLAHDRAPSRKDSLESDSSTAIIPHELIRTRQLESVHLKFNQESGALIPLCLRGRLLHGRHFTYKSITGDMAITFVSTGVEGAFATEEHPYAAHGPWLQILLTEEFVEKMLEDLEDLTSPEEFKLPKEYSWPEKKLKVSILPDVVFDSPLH
Experiment: co-IP; SUFU antibody (C81H7) and Protein G Dynabeads on 500 ug lysate of HEK-293 cells stably expressing FLAG constructs, cells treated with MG-132 10 uM for 6 h; IP buffer 1% NP-40, 50 mM Tris-HCl pH 8.0, 150 mM NaCl; 4 C overnight; blot with anti-FLAG M2 and SUFU antibodies

binding: binds
Substance: wild-type GLI2 (GLI Family Zinc Finger 2), N-terminal FLAG tag (from UniProt P10070-5 1-1586)
